Among the data in PubChem BioAssay AID662 (National Center for Advancing Translational Sciences (NCATS), 2007) are AC50 values, retold here.

As a reminder, the AC50 is the concentration at which the activity in the assay is half-maximal.

The list shows a part of the results. Further columns of the screen follow, without active or inactive calls. The list favours compounds with an active or inconclusive main result. Words in brackets tell the shape of the fitted curve; partial curves, single points and poor fits give uncertain potencies.

The nature of the experiment: Cell signaling CRE-BLA (Fsk stim). Conditions: CHO CRE-bla reporter (cAMP response element driving beta-lactamase), forskolin EC10, beta-lactamase ratio; measured here: 460 nm blue channel. Put shortly: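 Titrated compounds plus EC10 NKH 477 on CHO CRE-bla cells, 3 h, 37 °C. CCF4, 2 h RT. Ratio 460/530 nm → AC50.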
For `Cc1cc(=O)c2ccccc2[nH]1`, the AC50 was 0.126 µM [falling, full curve, poor fit].

As for `Oc1cc2c(cc1O)[C@H](c1ccccc1)CNCC2`, the AC50 was 25.1 µM [falling, partial curve].

For `COCCNc1nc(-n2nc(C)cc2C)nc2sc3c(c12)CCCC3`, the AC50 was 7.94 µM [rising, partial curve].

Take `COc1cc(-c2noc(CCC(N)=O)n2)cc(OC)c1OC`: the AC50 was 3.16 µM [rising, partial curve].

As for `N#CCCCSc1nnc(CSc2nc3ccccc3s2)n1-c1ccccc1`, the AC50 was 3.98 µM [falling, partial curve].

`COc1ccc2[nH]c(=O)c(CN(Cc3ccc(C)cc3)Cc3nnnn3CC3CCCO3)cc2c1` (centres undefined): the AC50 is 3.98 µM [falling, single point].

For the compound `COc1cccc(N(C(=O)c2cccs2)c2nc3ccccc3s2)c1`, the AC50 is 0.398 µM [rising, full curve].

With `CCOC(=O)C(NC(C)=O)(NS(=O)(=O)c1ccccc1)C(F)(F)F` (centres undefined), the AC50 was 0.0501 µM [falling, partial curve, poor fit].

For `CC(C)(C)c1cc(CN2CCCC(O)C2)c(O)c(C(C)(C)C)c1` (centres undefined), the AC50 was 5.01 µM [falling, single point].

`CCCc1cc(C(=O)N2CCN(c3ccccc3C)CC2)cs1`: the AC50 is 25.1 µM [falling, single point].

`COC(=O)C(C)Sc1nc2c(c(=O)[nH]c(=O)n2C)n1CCCc1ccccc1` (centres undefined): the AC50 was 15.8 µM [rising, partial curve].

As for `COc1nc(-c2ccc(C)cc2)ccc1-c1noc(-c2ccco2)n1`, the AC50 is 10 µM [rising, single point].

On to `CCOC(=O)C1=C(C)Nc2ccccc2N=C1NC(=O)c1cccc(S(=O)(=O)N(C)C)c1`, for which the AC50 is 15.8 µM [rising, single point].

Turning to `Cc1cc(-n2[nH]c(C)c(C)c2=O)nc(-c2ccccc2O)n1`, the AC50 was 7.94 µM [falling, partial curve].

On to `CCOC(=O)c1ccccc1NC(=O)c1ccc(Cl)c(S(=O)(=O)N2CCOCC2)c1`, for which the AC50 is 5.01 µM [rising, partial curve].

As for `Cc1ccc(-c2nn3c(C)nnc3s2)cc1NC(=O)c1ccc(-c2ccc(Cl)cc2Cl)o1`, the AC50 is 3.98 µM [rising, full curve, poor fit].

`COc1ccc(NCc2n[nH]nc2-c2ccccc2)cc1Cl`: the half-maximal activity concentration (AC50) is 25.1 µM [falling, single point].

`O=C(Nc1nccs1)c1ccc(Cl)c(S(=O)(=O)N2CCCCC2)c1`: the AC50 is 5.01 µM [rising, single point].

Regarding `C=CC(=C)CC(NC)c1ccccc1` (centres undefined), the AC50 is 0.794 µM [rising, full curve, poor fit].
